Experimental data from the supplement of paper PMC5949888.
Most values lie at the floor of the assay. Slopes are relative: functional sequences can read slightly below zero.

Each substance was assayed on Saccharomyces cerevisiae PS128 hsf1 delta, HSF1(1-493) fusion (assay: growth estimate (transactivation domain function in HSF1 fusion, heat-shock survival) (a.u. (slope of normalised read count over time)); higher = stronger growth at 37°C, i.e. more transactivation activity). Settings: library: random library.
Method: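 Random 60-nt DNA library encoding peptides of up to 20 aa, fused to the C-terminus of yeast HSF1 residues 1-493 (C-terminal TAD deleted) and expressed from the native HSF1 promoter on a CEN plasmid in hsf1-deleted S. cerevisiae PS128. Cells were selected at 37°C on -trp 5-FOA plates for 0, 2, 4, 6 and 8 days and amplicons were sequenced. Growth estimate is the slope of a robust linear fit of total-sum-normalised read counts (normalised to the first time point) over time, using at least 2 replicates. Sequences are classed functional (TAD activity) above a threshold of -0.13, set from stop-codon control sequences.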

Row | Substance | growth estimate
1 | ASVNDAALGGRMAH | < -0.25
2 | ASVRSGEEI | < -0.25
3 | ASVTSFSLSQLRRSVSDVDP | < -0.25
4 | ASYDRNVFTSRPAA | < -0.25
5 | ASYVSAGCPMGNTSYRTLTP | < -0.25
6 | ATCYEAYRVGRTAKLVGLHR | < -0.25
7 | ATG | < -0.25
8 | ATGARNADGLQRGITDRSVV | < -0.25
9 | ATGRHDNNGEIAGGNVSGAR | < -0.25
10 | ATGVATLSTGAIGRGSAIAA | < -0.25
11 | ATHTRRMAHRPGDDETYAS | < -0.25
12 | ATIHRGEESLLATNPRRTKF | < -0.25
13 | ATKIQPIID | < -0.25
14 | ATKRRGHVELRR | < -0.25
15 | ATLLLTRTRGQQ | < -0.25
16 | ATLVSEPLGISIPVENDT | < -0.25
17 | ATNALLS | < -0.25
18 | ATNSALPRMASLRVQLKFRV | < -0.25
19 | ATRISESECDLT | -0.24
20 | ATSAKGGQWSMWYTRTMSGG | < -0.25
21 | ATSSSGVRPFPIRKPCLLAP | < -0.25
22 | ATSYIGGFCDGLILAPRGWH | < -0.25
23 | ATTH | < -0.25
24 | ATVTCYNLMIEEAGALESYG | < -0.25

Row | Substance | growth estimate
25 | ATWDATASLR | < -0.25
26 | AVALSCCRKRPGDRCRHISS | < -0.25
27 | AVANIINDS | < -0.25
28 | AVAQERGDLGQ | < -0.25
29 | AVARPDTLFIGSVTSRPIYC | < -0.25
30 | AVCALRYIELGYTRHTDVRL | < -0.25
31 | AVDAPLGRR | < -0.25
32 | AVDIGLERCGYPYKIAAIDN | < -0.25
33 | AVDQPIRVICGRGVSPAR | < -0.25
34 | AVELVRVHPPRGLAYIGVSA | < -0.25
35 | AVEYRGRRRLNPPEAVVRRR | < -0.25
36 | AVGAGAGHAFRHQRSSARSG | < -0.25
37 | AVGLWRPESS | < -0.25
38 | AVGPAPGHRGTGGEPYFSYG | < -0.25
39 | AVGSLVGV | < -0.25
40 | AVHRLYAVGKGDLGDLKWTG | < -0.25
41 | AVI | -0.191
42 | AVIVVFIY | < -0.25
43 | AVKRCSWRPR | < -0.25
44 | AVKWIDTPVPRATISV | < -0.25
45 | AVLKQMDGVRCQRRR | < -0.25
46 | AVLSKTIGGGRPVHWWAGIT | < -0.25
47 | AVMTLRLSM | < -0.25
48 | AVNNAGLSTLDCNCSM | < -0.25

Row | Substance | growth estimate
49 | AVQIRTSARSSSNY | < -0.25
50 | AVRNTSLSGLSSNSTGPGRP | < -0.25
51 | AVSAARVHAWHPWLPKGSTG | < -0.25
52 | AVSNDNLRARISTCELLTRQ | < -0.25
53 | AVT | < -0.25
54 | AVTPIIENGREKFLWNTGRQ | < -0.25
55 | AVVGITPGGRMDFNIKSRTS | < -0.25
56 | AVVGRCWMY | < -0.25
57 | AVVGYRVLTPSRGNLGANVY | < -0.25
58 | AVVLAW | < -0.25
59 | AVVVTLRLLWLPWYIESMCA | < -0.25
60 | AVVWSVPIAP | < -0.25
61 | AVWFWFILVT | < -0.25
62 | AVWYRYSGNSLREHLVNSEV | < -0.25
63 | AVYRAG | < -0.25
64 | AWAD | < -0.25
65 | AWGREDRRSYGTRPIC | < -0.25
66 | AWHRRGGKVTLEE | < -0.25
67 | AWLLQGWERRSGRAVLSESP | -0.228
68 | AWRVTVPGGKTFDIA | < -0.25
69 | AWSA | < -0.25
70 | AWSEFDNEGCLVSELVMR | -0.246
71 | AWSIAKLVPRGEALNAE | < -0.25
72 | AWTSISS | < -0.25

Copied from the list:
Entry for AWSA under growth estimate: < -0.25
Entry for AVVWSVPIAP under growth estimate: < -0.25
Entry for AVTPIIENGREKFLWNTGRQ under growth estimate: < -0.25
Entry for AVRNTSLSGLSSNSTGPGRP under growth estimate: < -0.25
Entry for AVWYRYSGNSLREHLVNSEV under growth estimate: < -0.25
Entry for AWRVTVPGGKTFDIA under growth estimate: < -0.25
Entry for AVSAARVHAWHPWLPKGSTG under growth estimate: < -0.25

(cont.)

Row | Substance | growth estimate
73 | AYA | < -0.25
74 | AYDAWGRT | < -0.25
75 | AYDIMGSAGGYTGRISELSR | < -0.25
76 | AYEGNEASPGCYVIVLPDKR | < -0.25
77 | AYGGNYSKEGFS | -0.237
78 | AYGLGGQEIYTAAVRRSKSA | < -0.25
79 | AYGNYSPGSGLAGATDSVAQ | < -0.25
80 | AYHAEGGTHV | < -0.25
81 | AYICDASSLVLEIHAP | < -0.25
82 | AYIRLRCLTVIMAQAQ | < -0.25
83 | AYP | < -0.25
84 | AYPWIC | < -0.25
85 | AYR | < -0.25
86 | AYRGESMVVVSEWHAACTPG | < -0.25
87 | AYRVGHIRARAAVKIL | < -0.25
88 | AYSDVPFRRHQFSIRSYGCK | < -0.25
89 | AYSKI | < -0.25
90 | AYSLFIVSPLSAKPVKAHML | < -0.25
91 | AYSNVAAMGHCTLTPLVLTA | < -0.25
92 | AYYRLFV | < -0.25
93 | CAAR | < -0.25
94 | CAERGT | < -0.25
95 | CAFGTRGAHLQSGLGCSAWS | < -0.25
96 | CAFYLSLSLLGHYAACLSLP | < -0.25

Row | Substance | growth estimate
97 | CAIDEGFAQGYSRSPYKRPG | < -0.25
98 | CAMEIAG | < -0.25
99 | CANGRQR | < -0.25
100 | CAQQLSVQHATDPFSITARS | < -0.25
101 | CARQPHLNYTDGGRVTIGKD | < -0.25
102 | CARRTNLGVRNWLRYLLKKG | < -0.25
103 | CASDTGHCRYETSYST | < -0.25
104 | CAT | < -0.25
105 | CAVVY | < -0.25
106 | CAWYNTPCS | < -0.25
107 | CAYKGRALFAHSTVKLAISP | < -0.25
108 | CCCVGATRQVRPIHRELRAM | < -0.25
109 | CCDGSGGNFVMRVYSIRNCP | < -0.25
110 | CCGDAWTKTDGTKGDSPTRK | < -0.25
111 | CCGVIPHDRGARRVGKCKTR | < -0.25
112 | CCHDLGSAKDYLFSLLMSQG | < -0.25
113 | CCISRSH | < -0.25
114 | CCLGVKLTESLVNNAQNVSL | < -0.25
115 | CCNGSRE | < -0.25
116 | CCR | < -0.25
117 | CCRPVQYYV | < -0.25
118 | CCRSHDTRYICVPRRIRISL | < -0.25
119 | CCVKMQ | < -0.25
120 | CCVRTIRASAISTNHTKYGR | < -0.25

Row | Substance | growth estimate
121 | CCYFLGRCHHSGQYPIALTV | < -0.25
122 | CCYIIEAWSWRSPSKKDGRQ | < -0.25
123 | CDCVS | < -0.25
124 | CDHRMGRP | < -0.25
125 | CDIGLASSLAPA | < -0.25
126 | CDLRDLTSVPRRRCVASKIL | < -0.25
127 | CDNYPATRIQ | < -0.25
128 | CDPEGVIGQSRYLLKRDRNC | < -0.25
129 | CDPRHEWGYIVLLGSISVPL | < -0.25
130 | CDQN | < -0.25
131 | CDQTPTGGAS | < -0.25
132 | CDRGGPSGRLSNTSAVDQVL | < -0.25
133 | CDRSPMIGQVYPHSKSADKG | < -0.25
134 | CDSGDTRDSL | < -0.25
135 | CDSPATAGVSLAVLQIKTSK | < -0.25
136 | CDYFQAWRRQSVRNAHRTPL | < -0.25
137 | CEA | < -0.25
138 | CEDCLEQCAYHSLRNCMRNR | < -0.25
139 | CELSTEGGITPMKAHAQKLC | -0.229
140 | CELVSTI | < -0.25
141 | CEPGVHQRL | < -0.25
142 | CERHRVLDIGSPAPYC | < -0.25
143 | CESGRNSSKMWLLGPLMLTD | < -0.25
144 | CETESVFTFCMYARTDTGSS | -0.207

Row | Substance | growth estimate
145 | CETGLL | < -0.25
146 | CFCNGDNWPEWAYSPDNIRP | < -0.25
147 | CFEFIRSSAECPRIRSLYPA | < -0.25
148 | CFFTSWLRRVLVVNPTFRPR | < -0.25
149 | CFHDAMPRELGSAAIIDAYY | < -0.25
150 | CFIYGRLIQDGKVLFFLRYY | < -0.25
151 | CFLRSGGNGV | < -0.25
152 | CFQLRGCRVANARLTSRLSV | < -0.25
153 | CFRDEVLCL | < -0.25
154 | CFRT | < -0.25
155 | CFVRDPYLVSSVANVQCGLR | < -0.25
156 | CFYAHRVRSVLEQYLWR | < -0.25
157 | CGARCVLAPSWSILYTVLPF | < -0.25
158 | CGATSTGSSGPT | < -0.25
159 | CGCCSWDGDARGPTANWGFS | 0.81
160 | CGCDSG | -0.138
161 | CGEAGRGSCGPGDTIGFRNS | < -0.25
162 | CGEFLPFPRLVCMRDPQSYQ | < -0.25
163 | CGEHEWVWMDNRCPSPRR | < -0.25
164 | CGF | < -0.25
165 | CGFAVDKVFDYLYY | < -0.25
166 | CGFKKVFRRNASSIQRVIG | < -0.25
167 | CGHRGEKRGTPEPSSGSHRS | < -0.25
168 | CGHRGTVKPCGKVSPKVVIR | < -0.25

Row | Substance | growth estimate
169 | CGHS | < -0.25
170 | CGHSELPCVFDMSDIAV | < -0.25
171 | CGIGIVPRLCLIKPASLIQL | < -0.25
172 | CGIIQFNDLLYS | 0.19
173 | CGKSGGYRIVTGNLVSSIDR | < -0.25
174 | CGPLPLSLGLQPVN | < -0.25
175 | CGPSVGLVVRVFEPAQSGGH | < -0.25
176 | CGPVGNRETSTYITGLSWAL | < -0.25
177 | CGQRRI | < -0.25
178 | CGQTIRTIQPEDCVRASIKG | < -0.25
179 | CGQYSHAPSSG | -0.243
180 | CGR | < -0.25
181 | CGRHSSGQVFGYIAVWPPRV | < -0.25
182 | CGRR | < -0.25
183 | CGSFTNVERCSYCLGESSFD | < -0.25
184 | CGSLGVPRGTTTRLKVLMPR | < -0.25
185 | CGSLVQPKPEDLGRPIWTMP | < -0.25
186 | CGSMECSAPAAWGEQYIQRV | < -0.25
187 | CGSQISLCQLAIV | < -0.25
188 | CGSSRETTSITFESERLPTI | < -0.25
189 | CGTFCELMR | < -0.25
190 | CHFTAESGQD | < -0.25
191 | CHISLHGIWGNLSIPRPSTG | < -0.25
